# Test results published in PubChem BioAssay AID588590 (National Center for Advancing Translational Sciences (NCATS), 2011).
# The chains behind the UniProt entries cited, without tags or fusion partners. Where a name states a change or a piece, a line headed by the entry shows the natural chain unless it says otherwise.
# UniProt Q9UNA4: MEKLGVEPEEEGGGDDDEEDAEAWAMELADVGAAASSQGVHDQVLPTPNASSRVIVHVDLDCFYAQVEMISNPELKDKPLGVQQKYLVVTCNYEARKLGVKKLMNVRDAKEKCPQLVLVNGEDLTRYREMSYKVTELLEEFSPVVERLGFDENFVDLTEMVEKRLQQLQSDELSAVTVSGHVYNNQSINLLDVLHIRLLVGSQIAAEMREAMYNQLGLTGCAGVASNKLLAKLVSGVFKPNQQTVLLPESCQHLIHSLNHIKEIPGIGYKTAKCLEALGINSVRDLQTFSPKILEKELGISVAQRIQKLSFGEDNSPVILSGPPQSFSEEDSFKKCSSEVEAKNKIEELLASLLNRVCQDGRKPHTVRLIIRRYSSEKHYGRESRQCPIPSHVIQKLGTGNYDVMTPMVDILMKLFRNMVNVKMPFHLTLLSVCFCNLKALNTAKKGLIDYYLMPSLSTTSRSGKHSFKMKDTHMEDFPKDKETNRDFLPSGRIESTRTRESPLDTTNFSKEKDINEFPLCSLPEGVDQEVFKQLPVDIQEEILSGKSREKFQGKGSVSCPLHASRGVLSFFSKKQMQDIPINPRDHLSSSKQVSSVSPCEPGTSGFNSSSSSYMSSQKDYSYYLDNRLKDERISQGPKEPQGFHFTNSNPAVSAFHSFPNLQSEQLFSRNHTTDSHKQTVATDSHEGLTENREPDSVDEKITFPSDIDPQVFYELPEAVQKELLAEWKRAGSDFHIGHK
# The whole screen tested about 390,000 compounds, of which about 4,000 (1%) were called active. The inconclusive results got no clear call from the source; some entries with a clear call stand among them for comparison. Calls follow the shape of the dose curve; as a rule, active = well fitted inhibition curve with a large enough effect; inconclusive = small, poorly fitted or top-dose-only effect, or another doubt; inactive = no such curve, though single readings can be large or run the other way. Where the call is inconclusive, the potency comes from a doubtful curve fit.
# Molecular target: DNA polymerase iota (Homo sapiens) (UniProt Q9UNA4)
# Test: qHTS for Inhibitors of Polymerase Iota
# Conditions: Pol iota fluorescent replication assay, 10 min; series mostly up to 115 µM
# How it was run: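 Fluorescent replication assay read twice, at 0 min and 10 min after adding 50 nM (final) substrate. Enzyme (10 nM) and compounds were first incubated 15 min at room temperature; enzyme-free buffer wells were negative controls.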
# Potency is read from the fitted curve at half-maximal effect.
row,Compound,Potency
1,Brc1ccc(-c2noc(CCc3ccccc3)n2)o1,"inconclusive: 39.8 µM [inhibitor, partial curve, poor fit]"
2,COC(=O)CCC(=O)OC1(C)C(=O)C=C2C=C3CCCN3C=C2C1=O (stereo not given),"inconclusive: 14.1 µM [inhibitor, full curve, poor fit]"
3,O=c1c2cc3c(cc2n(Cc2ccc(Cl)cc2)c(=O)n1Cc1nc(-c2ccccc2)no1)OCO3,active: 89.1 µM
4,COc1cc(NC(=O)COC(=O)CNC(=O)c2cc(C)cc(C)c2)c(C)cc1[N+](=O)[O-],"inconclusive: 100 µM [inhibitor, single point]"
5,CCOC(=O)c1c(NC(=O)Cc2cccs2)sc2c1CCCC2,"inconclusive: 14.1 µM [inhibitor, partial curve, poor fit]"
6,CC1CCN(S(=O)(=O)c2ccc(NC(=O)CCNC(=O)c3ccc(Cl)cc3)cc2)CC1,inactive
7,COc1cc(C2C(C#N)=C(N)N(c3cccnc3)C3=C2C(=O)CCC3)ccc1O (stereo not given),"inconclusive: 44.7 µM [inhibitor, partial curve, poor fit]"
8,O=C(NCCc1nc2ccccc2[nH]1)/C(=C/c1ccc(F)cc1)NC(=O)c1ccco1,"inconclusive: 0.631 µM [inhibitor, full curve, poor fit]"
9,COc1cccc(-c2cc(C(=O)Nc3cc(Cl)ccc3O)on2)c1,inactive
10,Cc1ccc(CCNC(=O)CCCn2nc(C)c3c(C)n(-c4ccccc4)nc3c2=O)cc1,"inconclusive: 3.16 µM [inhibitor, full curve, poor fit]"
11,COc1ccc(C2CC(c3ccccc3)Oc3c(C)ccc(C)c32)cc1 (stereo not given),inactive
12,CC(=O)Nc1ccc(S(=O)(=O)N2CCC(n3c(C(F)(F)F)nc4cccnc43)CC2)cc1,inactive
13,CC(=O)OCC(NC(=O)C(CCCCNC(=O)OCc1ccccc1)NC(=O)OC(C)(C)C)C1OC(n2ccc(=O)[nH]c2=O)C(OC(C)=O)C1OC(C)=O (stereo not given),inactive
14,COc1ccc(OC)c(CN2CCCCCC2)c1,"inconclusive: 100 µM [inhibitor, partial curve]"
15,CS(=O)(=O)N1CC(C(=O)O)Oc2ccc(CC(=O)O)cc21 (stereo not given),"inconclusive: 12.6 µM [inhibitor, full curve]"
16,O=C(CN1CCCCC1)NC(=O)NC1CCCCC1,"inconclusive: 4.47 µM [inhibitor, partial curve, poor fit]"
17,O=C(C[n+]1ccccc1Cl)c1ccccc1,inactive
18,CC(C)COc1ccc(CNC(=S)NCc2ccccc2)cc1,"inconclusive: 89.1 µM [inhibitor, partial curve, poor fit]"
19,Nn1c(SCc2ccc([N+](=O)[O-])cc2)nc2ccccc2c1=O,"inconclusive: 50.1 µM [inhibitor, single point]"
20,CCn1c(COc2cccc(C)c2)nnc1SCC(=O)CC(=O)Nc1ccccc1OC,"inconclusive: 56.2 µM [inhibitor, partial curve, poor fit]"

# 2 entries from above, with tabs.
row	Compound	Potency
12	CC(=O)Nc1ccc(S(=O)(=O)N2CCC(n3c(C(F)(F)F)nc4cccnc43)CC2)cc1	inactive
13	CC(=O)OCC(NC(=O)C(CCCCNC(=O)OCc1ccccc1)NC(=O)OC(C)(C)C)C1OC(n2ccc(=O)[nH]c2=O)C(OC(C)=O)C1OC(C)=O (stereo not given)	inactive

# The results go on.

row,Compound,Potency
1,O=C(c1cccn2c(=O)c3cc(Br)ccc3nc12)N1CCN(c2ccccn2)CC1,"inconclusive: 6.31 µM [inhibitor, full curve, poor fit]"
2,O=C(NCCCn1cccn1)C1CCC(=O)N(Cc2ccccc2F)C1 (stereo not given),"inconclusive: 89.1 µM [inhibitor, single point]"
3,CCOc1ccc(CCNC(=O)Cn2nc(C)n3c(cc4occc43)c2=O)cc1OCC,inactive
4,O=[N+]([O-])c1cc(/C=N/n2c(-c3cccnc3)n[nH]c2=S)ccc1Cl,"inconclusive: 12.6 µM [inhibitor, full curve, poor fit]"
5,Cc1ccc(C)c(NC(=O)CN2C(=O)CCc3ccccc32)c1,active: 79.4 µM
6,O=[N+]([O-])c1ccc(Cl)c2c1C1C=CCC1C(c1ccccn1)N2 (stereo not given),"inconclusive: 12.6 µM [inhibitor, full curve, poor fit]"
7,Cc1cc(C)cc(NC(=O)Cn2nnc(C(=O)NCc3ccc4c(c3)OCO4)c2N)c1,"inconclusive: 56.2 µM [inhibitor, partial curve, poor fit]"
8,CCS(=O)(=O)c1ccc2c(c1)N(S(=O)(=O)c1cccs1)CC(C(=O)O)O2 (stereo not given),"inconclusive: 89.1 µM [inhibitor, single point]"
9,NC(=O)C1(C(N)=O)OC1c1ccc(Cl)cc1Cl (stereo not given),"inconclusive: 39.8 µM [inhibitor, single point]"
10,CSCC[C@H](NC(=O)[C@@H]1Cc2ccccc2CN1)C(=O)Nc1cccc(C)c1,"inconclusive: 11.2 µM [inhibitor, partial curve, poor fit]"
11,CCOC(=O)C1CCCN(S(=O)(=O)c2ccc(F)c(C(=O)Nc3ccc(F)c(F)c3)c2)C1 (stereo not given),"inconclusive: 100 µM [inhibitor, partial curve, poor fit]"
12,COCCNC(=O)c1cnn2c1NC(c1ccco1)CC2C(F)(F)F (stereo not given),"inconclusive: 25.1 µM [inhibitor, full curve, poor fit]"
13,O=c1c2ccccc2ncn1Cc1ccccc1,"inconclusive: 89.1 µM [inhibitor, single point]"
14,COc1ccc(C(=O)c2ccc(-c3ccc(OC)cc3)nc2)cc1,"inconclusive: 63.1 µM [inhibitor, partial curve, poor fit]"
15,COc1ccc2c(c1)CCc1cc(C(=O)O)sc1-2,"inconclusive: 79.4 µM [inhibitor, single point]"
16,CCC(=O)N1CCc2cc(Br)cc(S(=O)(=O)N3CCC(C(=O)Nc4ccc(OC)cc4)CC3)c21,inactive
17,COc1ccc(N2C(=O)C(Cl)=C(Nc3c(C)n(C)n(-c4ccccc4)c3=O)C2=O)cc1,"inconclusive: 10 µM [inhibitor, partial curve, poor fit]"
18,C=CCn1c(Cc2cccs2)nnc1SCC(=O)c1cccc(Br)c1,"inconclusive: 25.1 µM [inhibitor, partial curve, poor fit]"
19,CCOC(=O)C1CCCN(C2CCN(Cc3nc(Cc4ccccc4)no3)CC2)C1 (stereo not given),inactive
20,CC(C)=NNc1nc(-c2ccc(N3C(=O)CCC3=O)cc2)cs1,"inconclusive: 15.8 µM [inhibitor, full curve, poor fit]"
